No constants are given. Whether binding was seen depends on the method and setting. Binding seen in cells or lysates may run through a third protein. Some binding calls cover weakened binding; strength is not graded here.
Columns and labels:
[1] = biological target: Brefeldin A-inhibited guanine nucleotide-exchange factor 1 (BIG1) (mouse (endogenous in BMDMs)) (UniProt G3X9K3); test: co-IP; lysates of WT BMDMs with or without LPS (100 ng/ml, 30 min), immunoprecipitation with BIG1 antibody, western blot; both proteins endogenous
[2] = biological target: Myc-tagged ARF3 (Myc-mARF3) (mouse) (UniProt P61205); test: co-IP; lysates of WT BMDMs transfected with Myc-ARF1 or Myc-ARF3, incubated with anti-Myc agarose 6 h at 4 °C; lysis buffer 50 mM Tris-HCl pH 7.5, 150 mM NaCl, 1% Nonidet P40, 0.1% SDS-Na; western blot (the legend calls it a pull-down assay)
[3] = biological target: Myc-tagged ARF1 (Myc-mARF1) (mouse) (UniProt P84078); test: as above

By UniProt entry, the sequences of proteins in these tests, tags left out.
UniProt G3X9K3: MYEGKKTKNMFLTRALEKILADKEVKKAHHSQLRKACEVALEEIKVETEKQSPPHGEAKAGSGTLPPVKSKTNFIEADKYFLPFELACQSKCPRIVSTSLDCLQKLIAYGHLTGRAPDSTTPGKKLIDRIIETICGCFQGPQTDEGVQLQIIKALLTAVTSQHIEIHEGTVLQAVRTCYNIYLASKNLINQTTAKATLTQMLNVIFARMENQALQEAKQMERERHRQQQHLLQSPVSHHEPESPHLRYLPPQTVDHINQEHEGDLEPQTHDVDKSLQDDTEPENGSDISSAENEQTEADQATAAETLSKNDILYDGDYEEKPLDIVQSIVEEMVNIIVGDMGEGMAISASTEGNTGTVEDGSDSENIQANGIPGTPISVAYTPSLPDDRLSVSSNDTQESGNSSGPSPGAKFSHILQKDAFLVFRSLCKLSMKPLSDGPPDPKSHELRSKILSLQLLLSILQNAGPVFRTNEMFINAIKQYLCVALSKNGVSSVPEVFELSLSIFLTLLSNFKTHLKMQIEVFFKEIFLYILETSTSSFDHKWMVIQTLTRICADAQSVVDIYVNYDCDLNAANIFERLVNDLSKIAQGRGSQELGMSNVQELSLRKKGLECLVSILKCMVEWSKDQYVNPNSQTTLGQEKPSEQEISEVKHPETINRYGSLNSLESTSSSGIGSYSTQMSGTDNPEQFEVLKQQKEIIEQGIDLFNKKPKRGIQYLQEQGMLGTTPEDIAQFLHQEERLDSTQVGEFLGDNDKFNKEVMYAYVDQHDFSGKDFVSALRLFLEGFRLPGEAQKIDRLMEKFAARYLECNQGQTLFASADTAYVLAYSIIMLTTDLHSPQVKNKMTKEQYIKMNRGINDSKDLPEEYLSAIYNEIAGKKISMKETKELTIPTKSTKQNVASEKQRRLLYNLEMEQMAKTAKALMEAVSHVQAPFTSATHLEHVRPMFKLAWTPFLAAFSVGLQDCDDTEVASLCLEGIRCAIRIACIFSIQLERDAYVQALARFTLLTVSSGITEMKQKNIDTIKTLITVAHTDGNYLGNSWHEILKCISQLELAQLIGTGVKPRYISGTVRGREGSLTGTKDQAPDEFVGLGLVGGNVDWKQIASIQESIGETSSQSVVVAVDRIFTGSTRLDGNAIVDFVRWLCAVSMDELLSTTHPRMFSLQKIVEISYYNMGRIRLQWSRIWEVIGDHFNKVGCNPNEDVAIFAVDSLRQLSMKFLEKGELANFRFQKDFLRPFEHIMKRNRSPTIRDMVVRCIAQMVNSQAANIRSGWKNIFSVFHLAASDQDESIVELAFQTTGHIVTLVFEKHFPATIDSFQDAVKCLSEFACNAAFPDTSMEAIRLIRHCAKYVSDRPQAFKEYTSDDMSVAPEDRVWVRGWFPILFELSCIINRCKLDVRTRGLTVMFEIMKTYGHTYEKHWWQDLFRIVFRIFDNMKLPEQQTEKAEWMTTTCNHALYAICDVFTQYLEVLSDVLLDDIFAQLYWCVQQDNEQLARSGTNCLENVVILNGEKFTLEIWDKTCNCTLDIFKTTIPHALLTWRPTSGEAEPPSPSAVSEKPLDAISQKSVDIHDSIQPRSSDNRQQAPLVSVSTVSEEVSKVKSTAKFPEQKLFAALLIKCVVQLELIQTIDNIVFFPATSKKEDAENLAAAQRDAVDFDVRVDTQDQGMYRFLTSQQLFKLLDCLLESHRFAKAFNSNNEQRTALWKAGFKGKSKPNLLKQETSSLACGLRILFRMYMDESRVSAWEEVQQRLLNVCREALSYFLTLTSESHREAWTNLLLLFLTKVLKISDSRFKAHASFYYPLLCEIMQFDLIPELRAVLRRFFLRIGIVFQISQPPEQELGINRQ
UniProt P61205: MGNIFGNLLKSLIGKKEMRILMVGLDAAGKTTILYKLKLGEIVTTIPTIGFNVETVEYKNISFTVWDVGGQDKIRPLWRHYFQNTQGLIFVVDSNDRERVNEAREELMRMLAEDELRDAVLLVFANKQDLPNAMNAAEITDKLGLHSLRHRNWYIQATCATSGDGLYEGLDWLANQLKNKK
UniProt P84078: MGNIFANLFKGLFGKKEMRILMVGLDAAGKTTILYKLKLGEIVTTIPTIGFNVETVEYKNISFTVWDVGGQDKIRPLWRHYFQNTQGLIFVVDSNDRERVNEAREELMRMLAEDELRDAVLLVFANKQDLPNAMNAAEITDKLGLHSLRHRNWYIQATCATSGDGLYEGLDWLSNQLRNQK

Row | binding [1] | binding [2] | binding [3] | Substance
1 | binds | – | – | endogenous ARF3 (from UniProt P61205 1-181)
2 | – | binds | no binding | Brefeldin A-inhibited guanine nucleotide-exchange factor 1 (BIG1) (from UniProt G3X9K3 1-1846)
